# PubChem BioAssay AID1259280, Sanger Institute – 2017
# Assay: 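Kinome siRNA screen for partners that synergise with BYL719, cetuximab or trametinib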 (primary screen)
# Cell system: human SNU407 colorectal cancer cells
# Reagents: siRNA pool against human genes
# Conditions: anchor drugs BYL719 at 1 µM, cetuximab at 5 µg/ml or trametinib at 10 nM, or DMSO vehicle alone; exposure time not given
# Read-out: 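Viability per well scaled to a non-targeting pool and averaged over replicates, with a robust z-score from controls and a synergy score per anchor drug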
# Reading the numbers: viability z-score, no drug and viability vs control, no drug: higher = more cells survive the knock-down; synergy with trametinib and synergy with BYL719 and synergy with cetuximab: higher = stronger synergy of knock-down with drug
# Rule for the call: 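Essential calls require a no-drug robust viability z-score under -3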
# Meaning of the calls: active = essential (knock-down alone kills cells); inactive = no change without drug
# This is one part, drawn at random, of 794 reagents tested. Over the whole deposit, 12 (1.5%) got an active call. 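Calls cover knock-down without drug only; synergy scores stand apart, values above 0.15 being treated as synergy.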 Reagents against one gene are numbered here. Viability is capped at 1. Reagent sequences are not shown. Not given: the amount of reagent, the time to read-out.
gene knocked down,reagent no.,"viability z-score, no drug","viability vs control, no drug (fraction of control)",synergy with trametinib,synergy with BYL719,synergy with cetuximab,call
CMPK1 (cytidine/uridine monophosphate kinase 1),1,0.901,1,-0.0405,0.0291,0.031,inactive
"PFKFB4 (6-phosphofructo-2-kinase/fructose-2,6-biphosphatase 4)",1,-1.68,0.803,-0.0869,-0.0901,-0.171,inactive
STK38 (serine/threonine kinase 38),1,-0.357,0.904,0.0856,0.126,0.0344,inactive
"MOS (MOS proto-oncogene, serine/threonine kinase)",1,0.357,0.958,-0.0901,-0.0737,0.0338,inactive
TBX3 (T-box transcription factor 3),1,0.901,1,-0.0756,-0.118,-0.0154,inactive
NME6 (NME/NM23 nucleoside diphosphate kinase 6),1,-0.18,0.917,-0.0641,-0.0231,-0.163,inactive
FLT3 (fms related receptor tyrosine kinase 3),1,0.563,0.974,0.0209,0.14,0.0748,inactive
CAMK2D (calcium/calmodulin dependent protein kinase II delta),1,0.901,1,-0.2,-0.138,-0.0886,inactive
PKN2 (protein kinase N2),1,-0.0873,0.924,0.0209,0.151,0.0933,inactive
SBK1 (SH3 domain binding kinase 1),1,-0.0222,0.929,0.000306,-0.0382,-0.0303,inactive
PIK3C2B,1,0.397,0.961,0.0452,0.0458,-0.0154,inactive
STK17B (serine/threonine kinase 17b),1,0.248,0.95,0.0804,0.0702,-0.0204,inactive
JAK3 (Janus kinase 3),1,0.901,1,-0.0356,-0.00441,-0.0886,inactive
DGKI (diacylglycerol kinase iota),1,0.901,1,0.083,-0.0296,-0.00309,inactive
GATA3 (GATA binding protein 3),1,-2.49,0.741,-0.187,-0.0209,-0.0583,inactive
TRIM27 (tripartite motif containing 27),1,-0.17,0.918,0.0279,0.0515,-0.0958,inactive
CLK1 (CDC like kinase 1),1,0.901,1,-0.0139,-0.11,-0.0166,inactive
AURKB (aurora kinase B),1,0.25,0.95,0.0364,0.0654,0.0997,inactive
MAPK13 (mitogen-activated protein kinase 13),1,-0.71,0.877,-0.0128,0.0098,-0.0334,inactive
EIF2AK4 (eukaryotic translation initiation factor 2 alpha kinase 4),1,0.901,1,0.0173,0.0393,-0.0512,inactive
PCK1 (phosphoenolpyruvate carboxykinase 1),1,-0.0265,0.929,0.108,0.173,0.0792,inactive
PI4K2B (phosphatidylinositol 4-kinase type 2 beta),1,0.882,0.999,0.0963,-0.179,-0.0512,inactive
MAP3K8 (mitogen-activated protein kinase kinase kinase 8),1,-0.478,0.895,0.0455,0.112,0.00181,inactive
STK4 (serine/threonine kinase 4),1,0.609,0.978,-0.00748,-0.0346,-0.0626,inactive
STK32B (serine/threonine kinase 32B),1,-0.294,0.909,-0.0719,0.065,0.0344,inactive
ERBB2 (erb-b2 receptor tyrosine kinase 2),1,0.732,0.987,-0.113,-0.0016,-0.0963,inactive
SGK1 (serum/glucocorticoid regulated kinase 1),1,-0.143,0.92,-0.0711,-0.0223,-0.0425,inactive
CLK4 (CDC like kinase 4),1,-2.37,0.75,-0.156,-0.0161,-0.114,inactive
RIPK4 (receptor interacting serine/threonine kinase 4),1,0.544,0.973,-0.00188,0.027,-0.0477,inactive
ILK (integrin linked kinase),1,0.901,1,-0.0624,-0.00881,0.0157,inactive
ILK (integrin linked kinase),2,-0.137,0.921,-0.0299,0.0389,-0.015,inactive
MAP3K10 (mitogen-activated protein kinase kinase kinase 10),1,0.901,1,0.032,0.0528,-0.0535,inactive
NUAK2 (NUAK family kinase 2),1,0.473,0.967,-0.0379,0.182,0.0927,inactive
"BLK (BLK proto-oncogene, Src family tyrosine kinase)",1,-0.123,0.922,-0.0485,0,-0.068,inactive
CEP290 (centrosomal protein 290),1,0.901,1,0.0063,-0.0273,0.109,inactive
NRBP1 (nuclear receptor binding protein 1),1,-0.15,0.92,-0.0744,0.0596,-0.0159,inactive
MAST2 (microtubule associated serine/threonine kinase 2),1,0.901,1,0.037,0.138,0.0984,inactive
NR4A2 (nuclear receptor subfamily 4 group A member 2),1,-1.65,0.805,-0.036,0.00442,-0.091,inactive
CDC42BPG (CDC42 binding protein kinase gamma),1,0.722,0.986,-0.0227,0.00383,0.0925,inactive
FRK (fyn related Src family tyrosine kinase),1,0.447,0.965,-0.0768,-0.0358,0.00755,inactive
DCLK2 (doublecortin like kinase 2),1,-0.47,0.895,0.0471,0.128,0.0726,inactive
PRKCSH (PRKCSH beta subunit of glucosidase II),1,-0.0643,0.926,0.0955,0.0164,0.0114,inactive
CDC7 (cell division cycle 7),1,-0.661,0.881,0.00989,0.047,0.0108,inactive
PKIB (cAMP-dependent protein kinase inhibitor beta),1,0.901,1,-0.0305,0.0983,0.074,inactive
TYRO3 (TYRO3 protein tyrosine kinase),1,-0.274,0.91,0.035,-0.043,-0.0149,inactive
EPHB2 (EPH receptor B2),1,-0.103,0.923,-0.0539,0.0424,0.0521,inactive
PRKCH (protein kinase C eta),1,-1.03,0.852,0.0677,0.145,0.0883,inactive
ROCK2 (Rho associated coiled-coil containing protein kinase 2),1,-0.813,0.869,-0.0767,0.0566,0.00924,inactive
GALK2 (galactokinase 2),1,-1.37,0.827,-0.0403,-0.0651,-0.0178,inactive
EPHB4 (EPH receptor B4),1,-1.77,0.796,-0.03,-0.1,-0.146,inactive

Looked up above.
Entry of PKN2 (protein kinase N2) in “call”: inactive
Result of MAST2 (microtubule associated serine/threonine kinase 2) under “synergy with trametinib”: 0.037
Result for PRKCH (protein kinase C eta) in “synergy with cetuximab”: 0.0883
PFKFB4 (6-phosphofructo-2-kinase/fructose-2,6-biphosphatase 4), synergy with cetuximab: -0.171
Entry for CDC42BPG (CDC42 binding protein kinase gamma) under “synergy with BYL719”: 0.00383
